In patent publication US5789447A, “Nitric oxide releasing compounds as protective agents in ischemia reperfusion injury” (priority 1995, dated 1998):

Experiment: Chemical controls: DEA/NO or NO with hydrogen peroxide
Format: physicochemical
Protocol: Anaerobic solutions of 1 mM hydrogen peroxide in 10 mM phosphate buffer, pH 7.4, were mixed with 1 mM NO. […] The rate of decomposition of DEA/NO was unaffected by the presence of 1 mM hydrogen peroxide; likewise, hydrogen peroxide was not consumed by DEA/NO or intermediates of the DEA/NO decomposition reaction as measured by the production of I3^- (Hochanadel, J. Phys. Chem., 56, 587-594 (1952)).

For nitric oxide [NO], the formation of nitrate/nitrite (1 mM NO with 1 mM hydrogen peroxide, anaerobic, pH 7.4, <1000 s, 210 nm stopped-flow) was “No rapid formation of nitrate/nitrite” and the “consumption of NO by hydrogen peroxide” value (aerobic, 100 mM phosphate pH 7.4, 1 mM hydrogen peroxide, sulfinamide nitrosation) was “not significant”.
